Construct, isoform or probe ends are uncertain for at least one entry. Where cells or extracts were used, other partners may take part.
Tests used:
Test in all cases: ELONA
[1] = system: Estrogen receptor (ER), ER-positive control; details: sandwich with ER MAb-coated wells; estradiol; 50 mM Tris pH 7.4, 1% BSA, 1 mM EDTA, 0.1 M KCl, 10% glycerol; 37 C; ER-negative controls negative; protein in an extract; protein details: ER-positive controls from DSL and Du Pont; label: biotin (random or 5'-phosphate end)
[2] = biological target: Estrogen receptor (ER) (Homo sapiens) (UniProt P03372); details: 23 breast cancer cytosols; all Abbott ER-positive samples above 0.5 absorbance cut-off; MAb capture, estradiol, 37 C; protein in an extract; protein details: breast cancer cytosols; label: biotin (random or 5'-phosphate end)
[3] = biological target: Estrogen receptor (ER) (Bos taurus) (UniProt P49884); details: two calf uteri samples; MAb capture, estradiol, 37 C; protein in an extract; protein details: calf uteri (Animal Technologies) cytosol; label: biotin (random or 5'-phosphate end)

Protein sequences, listed by entry. Tags and fused reporters are not part of them.
UniProt P03372, whole entry: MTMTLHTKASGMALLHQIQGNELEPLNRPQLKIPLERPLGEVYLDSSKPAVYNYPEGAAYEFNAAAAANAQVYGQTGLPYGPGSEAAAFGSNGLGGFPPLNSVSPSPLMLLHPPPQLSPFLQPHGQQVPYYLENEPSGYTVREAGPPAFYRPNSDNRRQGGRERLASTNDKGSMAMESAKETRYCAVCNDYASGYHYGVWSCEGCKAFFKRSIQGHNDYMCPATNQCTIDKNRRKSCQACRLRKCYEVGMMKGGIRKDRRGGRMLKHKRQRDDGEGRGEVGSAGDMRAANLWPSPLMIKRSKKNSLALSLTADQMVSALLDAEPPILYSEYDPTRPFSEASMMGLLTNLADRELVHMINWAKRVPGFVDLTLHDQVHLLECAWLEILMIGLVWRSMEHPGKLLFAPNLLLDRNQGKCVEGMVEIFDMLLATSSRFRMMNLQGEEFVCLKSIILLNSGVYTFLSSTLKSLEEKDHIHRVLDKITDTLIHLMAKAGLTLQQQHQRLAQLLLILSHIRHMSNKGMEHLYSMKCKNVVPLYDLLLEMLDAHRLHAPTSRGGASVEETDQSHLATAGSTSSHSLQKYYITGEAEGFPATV
UniProt P49884, whole entry: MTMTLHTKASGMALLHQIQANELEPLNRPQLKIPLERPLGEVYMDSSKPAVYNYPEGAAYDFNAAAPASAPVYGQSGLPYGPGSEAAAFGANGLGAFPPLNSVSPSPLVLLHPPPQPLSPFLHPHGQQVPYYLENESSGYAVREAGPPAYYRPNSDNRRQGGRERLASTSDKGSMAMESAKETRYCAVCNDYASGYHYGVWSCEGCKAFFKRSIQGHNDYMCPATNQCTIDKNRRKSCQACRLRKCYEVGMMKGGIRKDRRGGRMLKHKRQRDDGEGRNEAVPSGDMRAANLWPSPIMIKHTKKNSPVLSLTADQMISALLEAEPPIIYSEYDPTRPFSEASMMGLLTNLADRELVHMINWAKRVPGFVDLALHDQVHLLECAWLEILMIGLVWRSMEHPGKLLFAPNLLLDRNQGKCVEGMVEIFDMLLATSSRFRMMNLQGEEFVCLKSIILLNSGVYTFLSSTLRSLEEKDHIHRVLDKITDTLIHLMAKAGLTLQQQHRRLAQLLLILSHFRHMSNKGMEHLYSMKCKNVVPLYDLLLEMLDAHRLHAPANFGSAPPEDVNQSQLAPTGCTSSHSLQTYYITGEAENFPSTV

Measured: binding result

CCAGGTCAGAGTGACCTGAGCTAAAATAACACATTCAGCCAGGTCAGAGTGACCTGAGCTAAAATAACACATTCAGCCAGGTCAGAGTGACCTGAGCTAAAATAACACATTCAGCCAGGTCAGAGTGACCTGAGCTAAAATAACACATTCAGCCAGGTCAGAGTGACCTGAGCTAAAATAACACATTCAGCCAGGTCAGAGTGACCTGAGCTAAAATAACACATTCAGCCAGGTCAGAGTGACCTGAGCTAAAATAACACATTCAGCCAGGTCAGAGTGACCTGAGCTAAAATAACACATTCAG (double strand) [ERE octamer (8 tandem copies of 38 bp consensus ERE)]
binds: all assays above

Source: patent US5770176
